Results of single-concentration screens

Source: ChEMBL document CHEMBL3988442, “University of Dundee, Small-Polar-MMV Screening Library” (2021).

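Whole-parasite assay of Trypanosoma brucei over 72 hours; the read-out is not stated. Tested at 10 µM. The record gives no direction; compounds that gave an IC50 in retests scored well above the rest, so higher reads as stronger inhibition. Values scatter widely below zero; nearly all retest evidence comes from the higher of the two concentrations used. About 2,700 compounds were tested under these conditions; 0.51% (about 14) showed 50% or more at least once.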

Each number is a percent effect as filed.
The record does not define 0% and 100%; most values in the screen are far below 50% and negative numbers occur (in some assays of this library far below -100).
This is an unselected part of the compounds tested.

c1ccc2oc(CN3CCCC3c3noc(C4CC4)n3)nc2c1 (stereo not shown) read -60.92%.
CCc1nc(C)ncc1C(=O)N1CCOC(c2nc(C)n[nH]2)C1 (stereo not shown) read -16.87%.
N#Cc1ccsc1NC(=O)CN1CCn2c(nnc2C2CC2)C1 read -40.45%.
CCc1nnc2n1CCN(C(=O)Cc1nc(-c3ccco3)oc1C)C2 read -49.82%.
CC(NC(=O)NCc1ccccn1)c1ccc2c(c1)CCC(=O)N2 (stereo not shown) read -38.84%.
Cc1cc(C)n(CC2CCCN2C(=O)c2cccc3c2OCCO3)n1 (stereo not shown) read -68.86%.
CCOc1ncccc1CNC(=O)NC(C)Cn1cccn1 (stereo not shown) read -0.2891%.
CC(=O)N(Cc1ncc(C)o1)C1CCN(Cc2ccon2)C1 (stereo not shown) read -72.82%.
O=C(NCc1nn(-c2ccccc2)c2c1CCC2)N1CCCC(O)C1 (stereo not shown) read -55.19%.
Cc1ccc(C(=O)NC2CCN(C(=O)Nc3ccncc3)CC2)o1 read -46.83%.
O=C(c1cccc(F)c1)N1CCCN(Cc2cscn2)CC1 read -47.7%.
CC(O)CN1CCN(Cc2coc(-c3ccc(Cl)cc3)n2)CC1 (stereo not shown) read -39.84%.
Nc1cc2c(nn1)CCN(C(=O)CCCC1CCCCC1)C2 read 6.71%.
COc1ccc(C(C)NC(=O)Cn2ccc(=O)n(C)c2=O)cc1F (stereo not shown) read -39.23%.
CC(NC(=O)COCC(F)(F)F)c1nnc2n1CCCCC2 (stereo not shown) read -32.1%.
CC(=O)NCCNC(=O)CN1CCOC(Cn2cc(C)cn2)C1 (stereo not shown) read -12.41%.
Cc1ncc2c(n1)CN(CC(=O)Nc1ccc(Cl)cn1)CC2 read -34.15%.
CC(=O)NCCCC(=O)NC(C)c1nnc2n1CCC2 (stereo not shown) read -54.92%.
CCOCc1ccc(CNC(=O)N2CCC(C(N)=O)C2)cc1 (stereo not shown) read -3.134%.
OC(CN1CCC(CNCc2ccccn2)CC1)c1ccccc1 (stereo not shown) read -26.34%.
COc1ccsc1C(=O)N1CCCC(n2cncn2)C1 (stereo not shown) read -14.51%.
CCc1ccsc1C(=O)N1CCN(CC(N)=O)CC1 read -26.37%.
Cc1cc(NC(=O)NCC2COc3ccccc3C2)no1 (stereo not shown) read -5.882%.
COCCCNC(=O)CN(C)C(=O)c1ccccc1O read -44.55%.
O=C(NCc1nnc2n1CCCC2)N1CCc2sccc2C1 read -34.46%.
Cc1ccc(NC2CCN(C(=O)CCn3nc(C)cc3C)CC2)nn1 read -15.97%.
Cc1nc(NC(=O)c2ccc(-n3ncc(C#N)c3N)cc2)sc1C read -25.11%.
O=C(CN1CCc2cncnc2C1)Nc1ccc(Cl)cn1 read -30.51%.
COc1ncccc1NC(=O)N(Cc1ccccn1)C1CC1 read -45.48%.
Cc1nn(C)c(Cl)c1C1CCCN1C(=O)c1ccnc(N(C)C)c1 (stereo not shown) read -31.37%.
COc1ccc(OC)c(C(O)CNC(=O)Nc2cc(C)nn2C)c1 (stereo not shown) read -67.94%.
Cc1nn(-c2ccccc2)cc1C(=O)N1CCCC(n2ccnc2C)C1 (stereo not shown) read -18.44%.
O=C(c1cccn1Cc1cccs1)N1CCSCC1 read -39.24%.
CCc1n[nH]c(C2CN(C(=O)c3ccnc(C)n3)CCO2)n1 (stereo not shown) read -18.43%.
N#Cc1ccc(OCCNCCn2cccn2)cc1 read -9.981%.
CC(C)(C)c1cc(NC(=O)CN2CCCC2Cn2cccn2)on1 (stereo not shown) read -34.24%.